{
  "source": "paper PMC5554155",
  "test": "immunoblot, N-terminal Flag vs C-terminal epitopes, ldlD cells",
  "details": "glycan lost; control: N15A-β1AR (Ser49 or Gly49 backbone), with Gal/GalNAc",
  "data": [
    {"protein": "β1-adrenergic receptor (β1AR): N15A-3SA (Ser49 or Gly49 backbone) (protein) parent chain: MGAGVLVLGASEPGALSSAAPLPDGAATAARLLVPASPPASLLPPASESPEPLSQQWTAGMGLLMALIVLLIVAGNVLVIVAIAKTPRLQTLTNLFIMSLASADLVMGLLVVPFGATIVVWGRWEYGSFFCELWTSVDVLCVTASIETLCVIALDRYLAITSPFRYQSLLTRARARGLVCTVWAISALVSFLPILMHWWRAESDEARRCYNDPKCCDFVTNRAYAIASSVVSFYVPLCIMAFVYLRVFREAQKQVKKIDSCERRFLGGPARPPSPSPSPVPAPAPPPGPPRPAAAAATAPLANGRAGKRRPSRLVALREQKALKTLGIIMGVFTLCWLPFFLANVVKAFHRELVPDRLFVFFNWLGYANSAFNPIIYCRSPDFRKAFQRLLCCARRAARRRHATHGDRPRASGCLARPGPPPSPGAASDDDDDDVVGATPPARLLEPWAGCNGGAAADSDSSLDEPCRPGFASESKV", "values": [
      {"measurement": "other: proteolytic processing", "result": "increases"}
    ]}
  ]
}
